The text below walks through data of publication PMC7819943, “Rice protein-binding microarrays: a tool to detect cis-acting elements near promoter regions in rice”.

Amino acid sequences for entries named in this document (tags omitted).
UniProt Q0JBA9, entry or part of it: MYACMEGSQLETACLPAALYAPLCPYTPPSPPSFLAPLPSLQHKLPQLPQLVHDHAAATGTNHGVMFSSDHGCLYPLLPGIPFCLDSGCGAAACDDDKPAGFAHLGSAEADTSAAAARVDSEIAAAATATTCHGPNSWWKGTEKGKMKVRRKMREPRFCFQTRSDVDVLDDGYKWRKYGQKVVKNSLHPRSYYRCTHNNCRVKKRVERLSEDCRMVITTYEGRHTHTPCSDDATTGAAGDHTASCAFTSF

Some of the results follow.

The assay concerns the target OsWRKY34 (Oryza sativa, UniProt Q0JBA9 1-250). The assay is described as follows: protein-binding microarray (RPBM); PBS, 2% BSA, 51.3 ng/ul salmon testes DNA, 50 uM zinc acetate, 200 nM TF, 25 C, 1 h; high values mean tight binding. The settings on record: protein: recombinant; tags: N-terminal polyhistidine and DsRed monomer fusion (pET32a); label: CyDye5-dUTP incorporated in the synthesized complementary strand; 3' TTTTT single-stranded linker to array surface; dsDNA, one strand shown. Summed up:
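An Axon 4000B scanner gave the binding signal as per-feature fluorescence intensity in arbitrary units. This followed washing of a custom Agilent array that had been incubated for 1 h at 25 °C with 200 nM protein in PBS, 2% BSA, salmon testes DNA and 50 µM zinc acetate. The proteins were transcription factors fused at the N-terminus to polyhistidine and DsRed, expressed in E. coli BL21-CodonPlus and purified on Ni–NTA.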
Turning to “ATTTGATACTTCTCTCGCCTTTCTTTATTATTCTCCCGCTCGGAGTCACCTAGTGCAG”, the binding signal is 8420 fluorescence intensity (a.u.).

Regarding “CACCAACTTATCAGGCAGCACCTTCATCGAGCTCAGCAACCGGAGTCACCTAGTGCAG”, the binding signal is 8050 fluorescence intensity (a.u.).

Take “GGCTTGATTTCTTCTTTTTTCTAATTTTCATATGGCTATTCGGAGTCACCTAGTGCAG”: the binding signal was 9800 fluorescence intensity (a.u.).

For the sequence “GACTGCGCCATCACCATCCATCTACAGAAGCATGCATGCACGGAGTCACCTAGTGCAG”, the binding signal was 9270 fluorescence intensity (a.u.).

In the case of “GGATCTCTACCTTCGCCTCCAGACCGGCGCTCCGTCTCTCCGGAGTCACCTAGTGCAG”, the binding signal is 9380 fluorescence intensity (a.u.).

Regarding “CAAAACTTTGACCAAAACGAGACCATGCAGCAATCAACCCCGGAGTCACCTAGTGCAG”, the binding signal is 8170 fluorescence intensity (a.u.).

With “TATTTTACGCACTTGTTCCATTTCCCCTGTTTGTTTGCCGCGGAGTCACCTAGTGCAG”, the binding signal is 15900 fluorescence intensity (a.u.).

On to “CTCCTCCATGCAAGCTCTCTTGTGCTTCTTTTTTTAATTTCGGAGTCACCTAGTGCAG”, for which the binding signal was 11100 fluorescence intensity (a.u.).

As to “TGGGGCCACGAGCGTGCCACGCCATCATCAAACACGTTTCCGGAGTCACCTAGTGCAG”, the binding signal is 8500 fluorescence intensity (a.u.).

For “TGCCTGTGTGTGTCACTCTTCTCATGATCTCATCACACCACGGAGTCACCTAGTGCAG”, the binding signal is 12000 fluorescence intensity (a.u.).

As to “AAGGCGCGCCGTCGCTCGCTTACATCCTCCACGTGTGCTCCGGAGTCACCTAGTGCAG”, the binding signal was 9020 fluorescence intensity (a.u.).

As for “AGAAATTATCACTTGTTTGTCTTTTGTTAGTCTTTTTTTTCGGAGTCACCTAGTGCAG”, the binding signal was 9060 fluorescence intensity (a.u.).

As for “AACTCCAGGGCCCACATGTCATCATACGAAAAAACGCGTACGGAGTCACCTAGTGCAG”, the binding signal is 10900 fluorescence intensity (a.u.).

Consider “CATTTCACTCCTTTACATCACATTTCTAGCCACCCTCTCACGGAGTCACCTAGTGCAG”, for which the binding signal is 10800 fluorescence intensity (a.u.).

For the sequence “TAGCTCGCTTGTCCTAATCCTCCTCTCTTTCTGCAACAAGCGGAGTCACCTAGTGCAG”, the binding signal is 10700 fluorescence intensity (a.u.).

Take “GGATTTCCTACCTCCCGCTTGGCTTCTCCTCGAATCCGATCGGAGTCACCTAGTGCAG”: the binding signal was 9530 fluorescence intensity (a.u.).

With “TTCTTCCCGGCGGCGTGGTCGTCGCTGTTCCCCACCCGCCCGGAGTCACCTAGTGCAG”, the binding signal is 9000 fluorescence intensity (a.u.).

Take “CCTGTGCCCATATCCTGTTGTTTCCAGTAGACATCCTTGGCGGAGTCACCTAGTGCAG”: the binding signal was 10200 fluorescence intensity (a.u.).

As for “TGTTTTACATCTATCTTCTTGCATTTTATTTTCCTATATGCGGAGTCACCTAGTGCAG”, the binding signal is 9920 fluorescence intensity (a.u.).

Consider “AAATCAAATAAAGCTTGTATATCTCTGTTTATGTAACATACGGAGTCACCTAGTGCAG”, for which the binding signal was 8070 fluorescence intensity (a.u.).

For “CGCCACCGGCACCTCGCCGCCCGCCCATGTCCACCGCCCACGGAGTCACCTAGTGCAG”, the binding signal is 8540 fluorescence intensity (a.u.).

“TATCCATAGTAGCCATGGTCACATCAGGAGGAGGGGAGGTCGGAGTCACCTAGTGCAG”: the binding signal is 11900 fluorescence intensity (a.u.).

Regarding “GTACTCTCGCTGTACGTAGCGTTCGTGTTGATAATAGATCCGGAGTCACCTAGTGCAG”, the binding signal is 8200 fluorescence intensity (a.u.).
